This note sets out measurements from PMC4357451.

Protein sequences, listed by entry. Tags and fused reporters are not part of them.
UniProt F1LTE0: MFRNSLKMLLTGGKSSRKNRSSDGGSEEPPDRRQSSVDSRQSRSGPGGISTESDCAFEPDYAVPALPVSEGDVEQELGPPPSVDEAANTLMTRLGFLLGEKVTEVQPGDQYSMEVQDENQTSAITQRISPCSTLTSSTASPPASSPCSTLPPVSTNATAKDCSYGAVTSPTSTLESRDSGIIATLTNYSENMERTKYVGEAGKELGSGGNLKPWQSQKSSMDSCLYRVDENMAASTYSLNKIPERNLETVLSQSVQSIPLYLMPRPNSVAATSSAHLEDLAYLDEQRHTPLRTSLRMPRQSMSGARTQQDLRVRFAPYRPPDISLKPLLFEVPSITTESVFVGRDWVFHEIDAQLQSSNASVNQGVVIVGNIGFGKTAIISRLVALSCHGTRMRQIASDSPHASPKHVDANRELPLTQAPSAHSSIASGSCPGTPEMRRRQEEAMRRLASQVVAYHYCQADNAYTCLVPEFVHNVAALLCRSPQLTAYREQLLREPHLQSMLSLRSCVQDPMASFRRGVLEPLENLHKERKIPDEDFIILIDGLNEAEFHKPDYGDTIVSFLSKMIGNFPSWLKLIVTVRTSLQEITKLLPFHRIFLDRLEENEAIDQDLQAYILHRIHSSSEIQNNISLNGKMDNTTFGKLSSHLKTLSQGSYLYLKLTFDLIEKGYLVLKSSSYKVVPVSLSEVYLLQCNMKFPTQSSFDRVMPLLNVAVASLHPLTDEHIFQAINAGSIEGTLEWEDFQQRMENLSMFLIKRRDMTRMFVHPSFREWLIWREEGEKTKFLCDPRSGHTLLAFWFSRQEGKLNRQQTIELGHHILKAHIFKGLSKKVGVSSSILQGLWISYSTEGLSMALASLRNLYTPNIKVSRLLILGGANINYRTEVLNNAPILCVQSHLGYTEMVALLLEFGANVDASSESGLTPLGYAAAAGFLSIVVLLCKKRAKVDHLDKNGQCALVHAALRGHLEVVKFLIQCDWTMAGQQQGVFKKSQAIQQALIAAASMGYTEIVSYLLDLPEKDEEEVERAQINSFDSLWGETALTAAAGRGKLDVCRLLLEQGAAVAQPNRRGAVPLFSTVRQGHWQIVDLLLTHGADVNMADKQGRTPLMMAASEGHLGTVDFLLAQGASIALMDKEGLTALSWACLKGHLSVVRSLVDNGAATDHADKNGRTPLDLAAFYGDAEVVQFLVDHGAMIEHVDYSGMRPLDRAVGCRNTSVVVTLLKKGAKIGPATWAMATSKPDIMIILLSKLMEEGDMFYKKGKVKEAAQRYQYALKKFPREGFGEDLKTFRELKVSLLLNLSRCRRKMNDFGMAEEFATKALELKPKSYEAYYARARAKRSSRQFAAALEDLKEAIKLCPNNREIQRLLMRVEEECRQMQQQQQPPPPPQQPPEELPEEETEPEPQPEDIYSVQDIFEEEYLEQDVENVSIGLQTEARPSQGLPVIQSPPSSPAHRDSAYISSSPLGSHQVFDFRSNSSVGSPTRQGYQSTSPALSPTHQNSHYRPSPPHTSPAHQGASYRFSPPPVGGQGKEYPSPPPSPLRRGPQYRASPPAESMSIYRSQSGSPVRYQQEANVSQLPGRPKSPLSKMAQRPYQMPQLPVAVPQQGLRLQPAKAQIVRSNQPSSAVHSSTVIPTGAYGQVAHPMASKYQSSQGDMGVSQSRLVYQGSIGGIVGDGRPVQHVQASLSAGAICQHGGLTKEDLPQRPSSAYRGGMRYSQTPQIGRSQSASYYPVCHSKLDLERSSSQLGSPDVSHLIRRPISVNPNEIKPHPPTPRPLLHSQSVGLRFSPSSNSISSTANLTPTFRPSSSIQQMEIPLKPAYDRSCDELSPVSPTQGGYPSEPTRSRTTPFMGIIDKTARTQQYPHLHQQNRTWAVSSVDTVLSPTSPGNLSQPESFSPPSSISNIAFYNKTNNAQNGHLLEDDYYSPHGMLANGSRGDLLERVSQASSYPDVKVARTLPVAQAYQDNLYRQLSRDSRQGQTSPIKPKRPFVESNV

Results are given in words; binding and its absence hold for the method and conditions named. In cells and extracts the contact can be indirect. These calls come from enrichment with a bait or labelling near it, and not all partners need be listed. Tags and fused reporters may be left off the sequences shown.

One test concerns the target T1, GFP-PRICKLE1 (human) (UniProt Q96MT3).
T1 sequence: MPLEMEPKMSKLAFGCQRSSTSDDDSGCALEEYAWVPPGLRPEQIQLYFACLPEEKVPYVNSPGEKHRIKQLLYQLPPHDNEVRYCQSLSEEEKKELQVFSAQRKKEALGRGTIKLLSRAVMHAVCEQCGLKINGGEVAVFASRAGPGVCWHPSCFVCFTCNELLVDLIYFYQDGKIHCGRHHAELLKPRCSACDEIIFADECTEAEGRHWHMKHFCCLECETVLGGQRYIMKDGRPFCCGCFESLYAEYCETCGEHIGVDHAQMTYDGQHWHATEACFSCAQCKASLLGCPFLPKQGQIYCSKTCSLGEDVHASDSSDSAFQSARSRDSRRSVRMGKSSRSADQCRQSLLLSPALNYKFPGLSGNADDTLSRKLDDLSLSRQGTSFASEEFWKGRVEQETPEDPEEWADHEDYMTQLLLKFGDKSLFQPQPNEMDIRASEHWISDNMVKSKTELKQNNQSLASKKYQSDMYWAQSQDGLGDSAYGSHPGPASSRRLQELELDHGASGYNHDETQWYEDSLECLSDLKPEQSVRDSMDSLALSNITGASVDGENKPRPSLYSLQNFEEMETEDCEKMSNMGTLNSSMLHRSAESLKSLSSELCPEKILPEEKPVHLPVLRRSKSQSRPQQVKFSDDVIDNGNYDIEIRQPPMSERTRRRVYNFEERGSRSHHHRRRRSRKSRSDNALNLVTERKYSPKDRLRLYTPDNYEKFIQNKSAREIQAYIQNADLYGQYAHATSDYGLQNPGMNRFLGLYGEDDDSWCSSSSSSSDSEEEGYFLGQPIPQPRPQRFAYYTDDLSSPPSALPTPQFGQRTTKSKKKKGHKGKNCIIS
The test can be described thus: affinity purification with mass spectrometry; anti-GFP beads on whole-cell lysates of doxycycline-induced, NGF-differentiated PC12 lines expressing GFP, GFP-PRICKLE1 or GFP-PRICKLE2; NET-100 buffer; LC-MS/MS matched to rat sequences.

The target of the next test is T2, GFP-PRICKLE2 (human) (UniProt Q7Z3G6).
T2 sequence: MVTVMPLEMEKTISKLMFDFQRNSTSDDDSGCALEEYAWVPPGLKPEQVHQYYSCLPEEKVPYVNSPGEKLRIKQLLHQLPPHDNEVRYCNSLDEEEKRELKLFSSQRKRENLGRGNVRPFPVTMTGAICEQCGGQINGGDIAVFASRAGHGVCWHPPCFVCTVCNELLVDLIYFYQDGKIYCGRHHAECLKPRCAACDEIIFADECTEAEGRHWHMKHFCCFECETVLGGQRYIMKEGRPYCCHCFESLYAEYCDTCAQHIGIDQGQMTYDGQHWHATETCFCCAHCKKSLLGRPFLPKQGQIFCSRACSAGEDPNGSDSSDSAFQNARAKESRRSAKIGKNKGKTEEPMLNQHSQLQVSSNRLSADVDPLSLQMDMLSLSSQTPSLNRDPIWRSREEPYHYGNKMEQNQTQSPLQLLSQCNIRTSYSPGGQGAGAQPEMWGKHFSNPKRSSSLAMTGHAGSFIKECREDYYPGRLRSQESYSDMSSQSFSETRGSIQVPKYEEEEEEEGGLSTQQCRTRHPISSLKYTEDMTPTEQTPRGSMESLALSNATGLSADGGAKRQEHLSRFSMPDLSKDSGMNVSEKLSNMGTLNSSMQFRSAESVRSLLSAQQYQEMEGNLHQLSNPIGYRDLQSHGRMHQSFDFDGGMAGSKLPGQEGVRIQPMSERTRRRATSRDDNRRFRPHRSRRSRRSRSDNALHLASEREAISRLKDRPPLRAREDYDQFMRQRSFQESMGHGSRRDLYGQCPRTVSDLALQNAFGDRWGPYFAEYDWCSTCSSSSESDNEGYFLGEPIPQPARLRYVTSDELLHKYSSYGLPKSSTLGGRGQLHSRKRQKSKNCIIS
The test is described as above.

“Tanc2, endogenous in PC12 cells (from UniProt F1LTE0 1-1992)”: the binding result in the test with GFP-PRICKLE1 (human) and with GFP-PRICKLE2 (human) was “binds” each time.

B1: Bcr, endogenous in PC12 cells (protein, UniProt F1LXF1 1-1270)
chain: MVDSVGFAEAWRAQFPDSEPPRMELRSVGDIEQELERCKASIRRLEQEVNQERFRMIYLQTLLAKEKKSYDRQRWGFRRAAQPPDGAAEPRASAPRLPPAPADGADPAPVEESEARPDGEGSPSKGRPATARRPAAAAPADRDDRGPPTSVAALRSNFEKIRKGPAQPGSADAEKPFYVNVEFHHERGLVKVNDKEVSDRISSLGSQAMQMERKKSQQSAGQGLGEAPRPHYRGRSSESSCGLDGDYEDAELNPRFLKDNLINANGGNRPPWPPLEYQPYQSIYVGGMMVEGEGKSPLLRSQSTSEQEKRLTWPRRSYSPRSFEDSGGGYTPDCSSNENLTSSEEDFSSGQSSRVSPSPTTYRMFRDKSRSPSQNSQQSFDSSSPPTPQCQKRHRQCQVVVSEATIVGVRKTGQIWPSDGDSTFQGEADSSFGTPPGYGCAADQAEEQRRHQDGLPYIDDSPSSSPHLSSKGRGSPASGALEPTKASELDLEKGLEMRKWVLSGILASEETYLSHLEALLLPMKPLKAAATTSQPVLTSQQIETIFFKVPELYEIHKEFYDGLFPRVQQWSHQQRVGDLFQKLASQLGVYRAFVDNYGVAMETAEKCCQANAQFAEISENLRARSNKDVKDSTTKNSLETLLYKPVDRVTRSTLVLHDLLKHTPSSHPDHSLLQDALRISQNFLSSINEEITPRRQSMTVKKGEHRQLLKDSFMVELVEGARKLRHIFLFTDLLLCTKLKKQSGGKTQQYDCKWYIPLTDLSFQMVDELEALPNIPLVPDEELDALKIKISQIKSDIQREKRANKGSKVMERLRKKLSEQESLLLLMSPSMAFRVHSRNGKSYTFLISSDYERAEWRESIREQQKKCFKSFSLTSVELQMLTNSCVKLQTVHHIPLTINKEDDESPGLYGFLHAIVHSATGFKQSSNLYCTLEVDSFGYFVNKAKTRVYRDTTEPNWNEEFEIELEGSQTLRILCYEKCYNKMKMAKEDGESADKLMGKGQVQLDPQTLQDRDWQRTVIDMNGIEVKLSVKFTSREFSLKRMPSRKQTGVFGVKIAVVTKRERSKVPYIVRQCVEEIERRGMEEVGIYRVSGVATDIQALKAAFDVNNKDVSVMMSEMDVNAIAGTLKLYFRELPEPLFTDEFYPNFAEGIALSDPVAKESCMLNLLLSLPEANLLTFLFLLDHLKRVAEKETVNKMSLHNLATVFGPTLLRPSEKESKLPANPSQPITMTDSWSLEVMSQVQVLLYFLQLEAIPAPDSKRQSILFSTEV
For B1, the binding result in the test with GFP-PRICKLE1 (human) and with GFP-PRICKLE2 (human) was “binds” each time.
